Source: article PMC12040169 (PLOS Biology, 2025)
The other results are listed elsewhere or left out.

Test system: T1, CTL2-GFP (C. trachomatis L2/434/Bu, GFP-expressing)
T1 construct: L2/434/Bu, GFP-expressing
Parameters: species or system HeLa; Intracellular C. trachomatis growth in HeLa cells, bulk GFP fluorescence relative to DMSO
Settings: bulk GFP, single well; 28.5 h, 10 µM; inhibitor

In order of rising “% of control remaining” value:
1. COc1cc(C(=O)Nc2nc3c(s2)CC(C)CC3)cc(OC)c1OC (stereo not shown) [CBK287299]  58.9119%
2. COc1ccc(OCC(=O)Nc2ccc(C(=O)O)c(Cl)c2)cc1 [CBK287108]  89.4175%
3. CC(C)(C)c1ccc(C(=O)Nc2nsc(-c3ccc(Cl)cc3)n2)cc1 [CBK113176]  98.2344%
4. O=C1NC2(CCCCCC2)C(=O)N1Cc1coc(-c2cccs2)n1 [CBK305858]  100.172%
5. COc1ccc([C@@]23CCC(NC(=O)Nc4cc(C(F)(F)F)ccc4F)C[C@@H]2N(C)CC3)cc1OC (stereo partly shown) [CBK047552T]  106.992%
6. N#C/C(=C\Nc1ccc(S(N)(=O)=O)cc1)c1nc(-c2cc3c(ccc4ccccc43)oc2=O)cs1 [CBK262376]  107.891%
7. O=C(CN1CCOCC1)NC(=O)Nc1ccccc1 [CBK269213]  113.371%
8. Cc1nn(Cc2cccc3ccccc23)c(C)c1NC(=O)c1ccncc1 [CBK269990]  113.57%
9. CCCNC(=O)N1CCCC(Cc2ccc(F)cc2F)(C(=O)OCC)C1 (stereo not shown) [CBK307031]  115.33%
10. COc1ccc(CN2CCN(c3ccccn3)CC2)cc1O [CBK261570]  116.77%
11. CC(C)n1cnnc1CN(C)C(=O)CCc1nc2ccccc2s1 [CBK304638]  117.315%
12. COc1ccccc1CN1CC[C@H]2NC(=O)CNC(=O)C3(C/C=C/C[C@H]2C1)CCN(C(C)=O)CC3 [CBK292107]  117.398%
13. CC1CCN(S(=O)(=O)c2cccs2)CC1 [CBK102093]  120.663%
14. Cc1nc2c(C(=O)NCCCN3CCCC3=O)cnn2c(C)c1Cc1cccc(F)c1 [CBK162104]  122.407%
15. COc1cccc(C(=O)Nc2nc3ccc(F)cc3s2)c1 [CBK287342]  123.852%
16. N#CCCn1cc(C(=O)N2CCOCC2)c(-c2cccc(Cl)c2)n1 [CBK306208]  126.406%
17. CC(Oc1ccc(F)cc1)C(=O)N1CCCc2c(cnn2C)C1 (stereo not shown) [CBK285230]  126.69%
18. COc1ccc(CN2CCCN(c3ccnc(OCCN4CCOCC4)n3)CC2)cc1 [CBK083800]  129.074%
19. CCn1nccc1C(=O)NC1=C(C#N)CCC1 [CBK265836]  144.454%
20. COc1ccc(N2CCN(c3cc(C)nc4cc(-c5nccn5C)nn34)CC2)cc1 [CBK286187]  146.257%
21. COC1CCCC(C(=O)NC(Cc2ccsc2)c2cccnc2)C1 (stereo not shown) [CBK284654]  159.64%
22. O=c1[nH]c2ncc(-c3cccc4cccnc34)nc2n1Cc1cccnc1 [CBK064305]  166.587%
